This is an account of results in the supplement of paper PMC8256030.

“And” between values parts separate entries of the source, which are not always exact repeats. Identical values can stand only once. This is one part of the list. This data set is noisy: repeats of one test often differ as much as different tests do.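 HEK293T cells were given each compound shortly before transfection with a reporter in which red mCherry is followed by the SARS-CoV-2 frameshift element and then GFP in the −1 frame, so GFP appears only after frameshifting.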

The subject of the experiment is HEK293T. Description: percent viability (nuclei count) relative to control; higher = more viable cells. The following applies: 10 µM; 24 h.
On to `Cn1c(=O)c2c(ncn2CC2OCCO2)n(C)c1=O` [doxofylline], for which the percent viability is 226% and 196%. Under `c1ccc2c(SC3=NCCN3)c[nH]c2c1` [tinazoline] stands 269%; under `N[C@@H](Cc1c[nH]c2ccc(O)cc12)C(=O)O` [oxitriptan], 184%; under `Cn1nnnc1SCC1=C(C(=O)O)N2C(=O)[C@@H](NC(=O)[C@H](O)c3ccccc3)[C@H]2SC1`, 143%. Under `CNCC[C@H](Oc1cccc2ccccc12)c1cccs1` stands 396%. Next, `O=C1c2ccccc2C(=O)C1c1ccc(Br)cc1` [bromindione]: 294%. For `NC(=O)NC(=O)Cc1ccccc1` [phenacemide], the percent viability was determined as 318%. Next, `N=C(N)N/N=C/c1c(Cl)cccc1Cl`: 200%; `COc1cc(CNC(=O)CCCC/C=C\C(C)C)ccc1O` [zucapsaicin]: 158%. Under `COc1ccnc(C[S+]([O-])c2nc3cc(OC(F)F)ccc3[nH]2)c1OC` (stereo not drawn) [Pantoprazole] stands 214% and 116%; under `COc1ccccc1N1CCN(CC(O)COc2cccc3ccccc23)CC1` (stereo not drawn) [naftopidil], 303% and 293%; under `Nc1nccs1` [aminothiazole], 329%. Next, `C[C@H]1COc2c(C3(N)CC3)c(F)cc3c(=O)c(C(=O)O)cn1c23`: 239%; `Cc1cccc(C)c1NC(=O)c1cc(S(N)(=O)=O)c(Cl)cc1O` [xipamide]: 321%; `Cc1cc(C(=O)NNCc2ccccc2)no1` [isocarboxazid]: 69.1%. With `C[C@@H]1C[C@H]2[C@@H]3C[C@H](F)C4=CC(=O)C=C[C@]4(C)[C@@]3(F)[C@@H](O)C[C@]2(C)[C@@]1(O)C(=O)CO` [flumetasone], the percent viability is 103% and 306%. Take `NC(Cc1ccc(Cl)cc1)C(=O)O` (stereo not drawn) [fenclonine]: the percent viability amounted to 29%.

Turning to `CO[C@@H]1[C@@H](O[C@@H]2O[C@H](C)[C@@H](O[C@H]3C[C@@](C)(O)[C@@H](OC(=O)CC(C)C)[C@H](C)O3)[C@H](N(C)C)[C@H]2O)[C@@H](CC=O)C[C@@H](C)[C@@H](O)/C=C/C=C/C[C@@H](C)OC(=O)C[C@H]1OC(C)=O` [Josamycin], the percent viability stood at 85.2%. Next, `O=C(c1ccc2nonc2c1)N1CCCCC1` [farampator]: 193%; `CCCCCCCCCCCCCCCCNc1ccc(C(=O)O)cc1` [cetaben]: 85.7%; `CO[C@H]1/C=C/O[C@@]2(C)Oc3c(C)c(O)c4c(O)c(cc(O)c4c3C2=O)NC(=O)/C(C)=C\C=C\[C@H](C)[C@H](O)[C@@H](C)[C@@H](O)[C@@H](C)[C@H](OC(C)=O)[C@@H]1C` [rifamycin]: 87.4%. Under `CCCN(CCC)S(=O)(=O)c1ccc(C(=O)O)cc1` [probenecid] stands 160%; under `Cc1cccc(Nc2ccncc2S(=O)(=O)NC(=O)NC(C)C)c1` [Torasemide], 264%.

Take `NCCCC[C@H](N[C@@H](CCc1ccccc1)C(=O)O)C(=O)N1CCC[C@H]1C(=O)O` [lisinopril]: the percent viability came to 146%. On to `C[C@@H]1[C@H](O)[C@@H](C)/C=C/C=C/C=C/C=C/C=C/C=C/C=C/[C@H](O[C@@H]2O[C@H](C)[C@@H](O)[C@H](N)[C@@H]2O)C[C@@H]2O[C@](O)(C[C@@H](O)C[C@@H](O)[C@H](O)CC[C@@H](O)C[C@@H](O)CC(=O)O[C@H]1C)C[C@H](O)[C@H]2C(=O)O` [Fungizone], for which the percent viability was 21.7%.

As to `CCOC(CN1CCN(CC(C)C(=O)c2ccccc2)CC1)c1ccccc1` (stereo not drawn) [eprazinone], the percent viability stood at 323%.

With `C=C(C)CNc1ccc(C(C)C(=O)O)cc1` (stereo not drawn) [alminoprofen], the percent viability came to 401%. Next, `C[C@@H]1C[C@H]2[C@@H]3C[C@H](F)C4=CC(=O)C=C[C@]4(C)[C@H]3[C@@H](O)C[C@]2(C)[C@H]1C(=O)CO` [Fluocortolone]: 68.6%; `CCC(C)CCCCC(=O)NC(CCN)C(=O)NC(C(=O)NC(CCN)C(=O)NC1CCNC(=O)C(C(C)O)NC(=O)C(CCN)NC(=O)C(CCN)NC(=O)C(CC(C)C)NC(=O)C(Cc2ccccc2)NC(=O)C(CCN)NC1=O)C(C)O` (stereo not drawn): 148%. Next, `O=P(O)(O)OC(Cn1cncn1)(Cn1cncn1)c1ccc(F)cc1F` [fosfluconazole]: 182%. Next, `CSCC[C@H](NC(=O)[C@H](Cc1c[nH]c2ccccc12)NC(=O)CCNC(=O)OC(C)(C)C)C(=O)N[C@@H](CC(=O)O)C(=O)N[C@@H](Cc1ccccc1)C(N)=O` [Pentagastrin]: 310%; `COC(=O)Nc1nc2cc(Sc3ccccc3)ccc2[nH]1` [fenbendazole]: 34.6% and 25%.

Turning to `COCCCN1CCC(NC(=O)c2cc(Cl)c(N)c3c2OCC3)CC1` [prucalopride], the percent viability is 150%.
